# Assay results: publication doi:10.1101/402123 (bioRxiv, 2018)
# These are yes or no findings as the source states them, for the method shown. Some entries that bind do so weakly or less than the wild type.
# T1: fluorescein-labeled BP230 peptide 26-55 (human, UniProt Q03001-8 26-55, N-terminal fluorescein)
# T1 peptide (looked up): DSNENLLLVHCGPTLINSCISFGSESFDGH
# Molecular target: T1, fluorescein-labeled BP230 peptide 26-55
# Assay: fluorescence polarisation
row,binding,Binder
1,binds weakly,"β4-CS-FnIII-3,4 (1436-1666) D1600R (domain or fragment, UniProt P16144-2 1436-1666) LPRDYSTLTSVSSHDSRLTAGVPDTPTRLVFSALGPTSLRVSWQEPRCERPLQGYSVEYQLLNGGELHRLNIPNPAQTSVVVEDLLPNHSYVFRVRAQSQEGWGREREGVITIESQVHPQSPLCPLPGSAFTLSTPSAPGPLVFTALSPDSLQLSWERPRRPNGRIVGYLVTCEMAQGGGPATAFRVDGDSPESRLTVPGLSENVPYKFKVQARTTEGFGPEREGIITIES"
2,binds weakly,"β4-CS-FnIII-3,4 (1436-1666) P1616R/T1618R (domain or fragment, UniProt P16144-2 1436-1666) LPRDYSTLTSVSSHDSRLTAGVPDTPTRLVFSALGPTSLRVSWQEPRCERPLQGYSVEYQLLNGGELHRLNIPNPAQTSVVVEDLLPNHSYVFRVRAQSQEGWGREREGVITIESQVHPQSPLCPLPGSAFTLSTPSAPGPLVFTALSPDSLQLSWERPRRPNGDIVGYLVTCEMAQGGGRARAFRVDGDSPESRLTVPGLSENVPYKFKVQARTTEGFGPEREGIITIES"

# The remaining lines, values behind:
row,Binder,binding
1,"β4-CS-FnIII-3,4 (1436-1666) R1540E (domain or fragment, UniProt P16144-2 1436-1666) LPRDYSTLTSVSSHDSRLTAGVPDTPTRLVFSALGPTSLRVSWQEPRCERPLQGYSVEYQLLNGGELHRLNIPNPAQTSVVVEDLLPNHSYVFRVRAQSQEGWGEEREGVITIESQVHPQSPLCPLPGSAFTLSTPSAPGPLVFTALSPDSLQLSWERPRRPNGDIVGYLVTCEMAQGGGPATAFRVDGDSPESRLTVPGLSENVPYKFKVQARTTEGFGPEREGIITIES",binds weakly
2,"β4-CS-FnIII-3,4 (1436-1666) R1540A (domain or fragment, UniProt P16144-2 1436-1666) LPRDYSTLTSVSSHDSRLTAGVPDTPTRLVFSALGPTSLRVSWQEPRCERPLQGYSVEYQLLNGGELHRLNIPNPAQTSVVVEDLLPNHSYVFRVRAQSQEGWGAEREGVITIESQVHPQSPLCPLPGSAFTLSTPSAPGPLVFTALSPDSLQLSWERPRRPNGDIVGYLVTCEMAQGGGPATAFRVDGDSPESRLTVPGLSENVPYKFKVQARTTEGFGPEREGIITIES",binds weakly
3,"β4-CS-FnIII-3,4 (1436-1666) R1542E (domain or fragment, UniProt P16144-2 1436-1666) LPRDYSTLTSVSSHDSRLTAGVPDTPTRLVFSALGPTSLRVSWQEPRCERPLQGYSVEYQLLNGGELHRLNIPNPAQTSVVVEDLLPNHSYVFRVRAQSQEGWGREEEGVITIESQVHPQSPLCPLPGSAFTLSTPSAPGPLVFTALSPDSLQLSWERPRRPNGDIVGYLVTCEMAQGGGPATAFRVDGDSPESRLTVPGLSENVPYKFKVQARTTEGFGPEREGIITIES",binds weakly
4,"β4-CS-FnIII-3,4 (1436-1666) R1595E/R1596E (domain or fragment, UniProt P16144-2 1436-1666) LPRDYSTLTSVSSHDSRLTAGVPDTPTRLVFSALGPTSLRVSWQEPRCERPLQGYSVEYQLLNGGELHRLNIPNPAQTSVVVEDLLPNHSYVFRVRAQSQEGWGREREGVITIESQVHPQSPLCPLPGSAFTLSTPSAPGPLVFTALSPDSLQLSWERPEEPNGDIVGYLVTCEMAQGGGPATAFRVDGDSPESRLTVPGLSENVPYKFKVQARTTEGFGPEREGIITIES",binds weakly
5,"β4-CS-FnIII-3,4 (1436-1666) V1578R/T1580R (domain or fragment, UniProt P16144-2 1436-1666) LPRDYSTLTSVSSHDSRLTAGVPDTPTRLVFSALGPTSLRVSWQEPRCERPLQGYSVEYQLLNGGELHRLNIPNPAQTSVVVEDLLPNHSYVFRVRAQSQEGWGREREGVITIESQVHPQSPLCPLPGSAFTLSTPSAPGPLRFRALSPDSLQLSWERPRRPNGDIVGYLVTCEMAQGGGPATAFRVDGDSPESRLTVPGLSENVPYKFKVQARTTEGFGPEREGIITIES",binds weakly
6,"β4-CS-FnIII-3,4 (1436-1666) R1542A (domain or fragment, UniProt P16144-2 1436-1666) LPRDYSTLTSVSSHDSRLTAGVPDTPTRLVFSALGPTSLRVSWQEPRCERPLQGYSVEYQLLNGGELHRLNIPNPAQTSVVVEDLLPNHSYVFRVRAQSQEGWGREAEGVITIESQVHPQSPLCPLPGSAFTLSTPSAPGPLVFTALSPDSLQLSWERPRRPNGDIVGYLVTCEMAQGGGPATAFRVDGDSPESRLTVPGLSENVPYKFKVQARTTEGFGPEREGIITIES",binds weakly
